From PubChem BioAssay AID1508600 (Functional Genomics Laboratory (NCATS/FGL), 2020) come the findings set out here.

Hit rate of the full screen: of about 53,000 sequences, about 3,700 (7%) were called active.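 How the source made its calls: active means gene knockdowns whose robust z-score for IL-1 alpha signal is at least 2 or at most -2, so actives lie on both sides; inactive means the rest.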 The list shows a part of the results.

The assay is described as follows: Components of the Cytosolic LPS Sensing Pathway: Gene Identification via Genome-wide siRNA Screen.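 Further: robust z of the log signal after scaling to non-targeting control siRNA wells of the plate.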 The note with it: RAW264.7 macrophages, IL-1a HTRF, actives lie on both sides, screened at 100 nM (by protocol), cells primed 5 h with Pam3CSK4 first. In outline: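 Three distinct siRNAs per gene were tested singly at 100 nM in RAW264.7 macrophages. Following Pam3CSK4 priming and 24 hour LipidA transfection, IL-1a secretion was read by HTRF.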
Regarding CCCUCAGAACCAUUGAGAATT against Max, the z-score is inactive: 0.1. The same measure for GGACAGAUGAAGCUGCAUUTT against S100a4: inactive: -0.422; for GCGUGAACACCUGAGGAUUTT against Rchy1: inactive: -0.323; for GCGGUCCACUCCUGUUUGATT against Ypel1: inactive: -1. Take GGAUCUGUCUACUUUUCCUTT against Hikeshi: the z-score is inactive: 0.777. The same measure for GGCUAUAUCAAUGAAUUUGTT against Polr3b: inactive: 0.393. The same measure for CCGAUCCAAUGCACCAAACTT against Ostc: inactive: -0.131. The same measure for GGCUUUCAUGUGCCGUUUUTT against Gstm5: active: 2.39; for GGGACUGGUCGUUUAGGAUTT against Tmie: inactive: -0.199; for GGAAAUGACAGGAAAGAUUTT against Zfp35: inactive: 0.585. Take GGAUGAUGCUUCUUGAAAATT against Sfrp4: the z-score is inactive: -0.78. For GGACUUCAAGGAUGCCUACTT against B3galt5, the z-score was inactive: -0.311. The same measure for GCUUCCUCGGUCAAAUAAATT against Cetn1: inactive: 1.12. GGCUGGAGAAGUAAUGAUATT against Sp100: the z-score is inactive: 0.62. Turning to GGUAAACACUACCCUAACATT against Cpeb3, the z-score was inactive: -1.42. The same measure for CCAGAAUGAUUAAUAACGGTT against Nsun3: inactive: -0.675; for GGACCAGUUACAGAUGUGGTT against Tor1a: inactive: -0.952; for GGAGCACCAAGAAUUUUUUTT against Bcl2l10: inactive: 0.663. Regarding GGCCUCCAAGAUUGUAGGUTT against Prtn3, the z-score was inactive: -0.661. As to GGGAAAGAAUGGUGUGGAATT against Dlx4, the z-score is inactive: -1.97. GGGUGAUCAUUCAUCAGUUTT against Mettl7b: the z-score was inactive: 1.37.

Consider GGACAAAUUCUACAUCAGCTT against Adam8, for which the z-score was inactive: 0.0533. The same measure for GGAAAGUCCACUCUAGUCCTT against Dusp16: inactive: -1.48. The same measure for GGGUGAGGAAUAUUAAUUCTT against Tuba1c: inactive: 0.733; for GGAAUUAGACUUCUGCGUCTT against Adamts15: inactive: -0.00667; for CGAUACGCUACUGCAGGUGTT against H1f10: inactive: -1.1. The same measure for GGUACUAUCACAUCAUUAATT against Olfr1106: inactive: 0.935. On to GGAACCUCCUUAUUCAAUGTT against Rspry1, for which the z-score is inactive: 0.0592. On to GGAAUUCAUGAACUACUAUTT against Capsl, for which the z-score was active: -2.07. Regarding GGUCUCUCCCAUGUUAAUCTT against Lcn3, the z-score was inactive: 0.409. The same measure for GGUCCUUCUUGUGUAGUCATT against Plac1: inactive: -0.524.

For the sequence GUUCCCGUUCUACGAGAAGTT against Foxl2, the z-score was inactive: 1.22. The same measure for GGUGUAUAGCUGUUGUGGGTT against Dennd2d: inactive: -1.41; for GGGAAAGAUCCAGAACCAGTT against Rsrp1: inactive: 0.255. The same measure for GCUGAUUUAUAACAGGCGUTT against Xkr8: inactive: 0.608; for GCUCUAUCGAAUCAUAUUATT against Intu: inactive: -1.47. The same measure for GCGAUAUUGACUGUGUAUATT against Ypel5: inactive: 0.256; for CGCUUUCUAUACCAGAAGUTT against Lbx1: inactive: 0.0879; for GGAAAAAGUUCCAAAAGAATT against Kif21b: inactive: -1.01.

Turning to GCAAUGGACACUGUAUCAATT against Gab2, the z-score was inactive: 0.0379. The same measure for GGGACUGCUAGUAAAGUUCTT against Cabin1: inactive: 1.06; for GGUCACCAUAGAUCGGCAATT against Slamf7: inactive: 0.093; for CGAGAGCGAGUGAAAGAAGTT against Eif4enif1: inactive: -1.26. The same measure for GCAUUCGUUCGGCACGUGUTT against Bcl2l14: inactive: -0.0672; for GGUGGUUUUGAGAAUUAACTT against H1f3: inactive: -0.206. The same measure for CGCAAGAUACCAACACUUATT against Flad1: inactive: -0.487. Take CCUAGCACUAGCCUCCUUATT against Tbx2: the z-score is inactive: 1.1. The same measure for “GCAUGAUUAGGUUUCAGCATT against 2310057M21Rik”: inactive: -1.31; for GGAUGGACCAUCAGCUUCATT against Olfr1152: active: -2.25. The same measure for GGAAGAAGAAUAAGGCUUUTT against Tmem189: inactive: 0.904; for GGAGAUGAUGCUCUUCCUGTT against Cflar: inactive: 0.239.

Consider GGUCGGGAUUUAAUUUGUATT against Bbs9, for which the z-score is inactive: 0.978. The same measure for GGCCCUUGUAAGAGUCCUUTT against Olfr381: inactive: 0.698; for GGAAAUAUAUCUGAAAGGGTT against Sphkap: inactive: 0.514.

Regarding AUCUCAGCGUAGAACGAAUTT against Gm5617, the z-score was inactive: -0.309.

Take GCUGAUAAACCACUUGUGATT against Olfr1287: the z-score was inactive: -0.804. The same measure for GGAAAUCGAGCAUGUCUUCTT against Stk32c: active: 2.21; for GGAGCUGAUGUAGCCUUCATT against Yif1a: inactive: -1.97. The same measure for GGACAAUAGUGUGCUACCATT against Mrpl42: inactive: 0.704; for GGUAGUCAAGUCGAAAGUATT against Ccdc18: active: -2.19; for GCAUGAACUUACCCUAUUATT against Vmn1r197: inactive: -1.25. The same measure for GCAGAGCAAAGACCUGACUTT against Ccdc157: inactive: 0.221; for GGUUCUGCCCUAUUUGUCATT against Tle5: inactive: -0.606; for GGGCAACUACGAGUCUCUCTT against Zfp398: inactive: 0.273. For the sequence CGUGUUGGAGUACAAUGAGTT against Imp3, the z-score was inactive: -0.927.

Take GGAAGUCAACAAUGCAUUCTT against Olfr1451: the z-score was inactive: -0.133. The same measure for GGGCUCCUUUUUUUUUUUUTT against Frat1: active: -2.55; for CCUGAUCGACUUCAACUUGTT against Tmem39b: inactive: 0.0949; for GCAAUCAAAAGAUUGUCACTT against Gmeb1: inactive: 0.17.

CCAGACAUGAAACUUGUAUTT against Mms19: the z-score is inactive: -0.165. As for GCCCAACCUGUCCAUACUUTT against Guca2b, the z-score was inactive: -0.193. The same measure for GGAAGAAAUGGAAAUGGAUTT against Nek9: inactive: 0.837. The same measure for GGUGUCAUCACAAAAAGAATT against Epha1: inactive: 1.21. The same measure for GGACUGAGGGCAAUGAAAATT against Chst15: inactive: 0.523. In the case of GCCCUGGAAGAAUUAUGUGTT against Nat8, the z-score was inactive: -0.0773.

For the sequence GCAGUUUUGGUGCAUGGGATT against Coq6, the z-score is inactive: -0.424. As to CCGCGUACACCAACACUCATT against Hoxa2, the z-score was inactive: 0.323. The same measure for GCUGAAGACCGACUACAAGTT against Cnih1: inactive: 0.569; for “GGAGAUCGAUAUUCGACUATT against 4933434E20Rik”: active: -2.48; for GCCGUCAAAAAUAUGCUGATT against Stim1: inactive: -0.0018.

Consider GGCACACAGUUUUGUACAUTT against Nfat5, for which the z-score was active: 2.25. The same measure for GCCAAACACUCGACUCUAATT against Gm11733: inactive: -0.823; for CGGUAUUUGUCUGUAUCCUTT against Npc2: inactive: -1.71.

On to GCACCCUAAUGUGAUCGCATT against Cdk19, for which the z-score was inactive: -1.34. The same measure for GGUGAUAGUCCACGAGGUUTT against Esyt1: inactive: 0.889. Regarding GGCUCAGUCCCAUCAGCAUTT against Gdf7, the z-score was inactive: 0.524. Regarding GGAAGGAACUUUUUGAGUATT against Trim61, the z-score was inactive: -0.467. The same measure for GGCACAGACCUCACAGUUATT against Olfr64: inactive: 0.534.

Consider CCCAAAUACCUACCAUCUCTT against Slc4a9, for which the z-score was inactive: -0.44.

For the sequence CCACAUCUGAACAUUAGUCTT against Phxr1, the z-score was inactive: -0.55. The same measure for GGUCACCUUUGCACAGUACTT against Atpsckmt: inactive: -0.758; for GGUUUUUGUGGAGACACUGTT against Ap3s2: inactive: -1.41. The same measure for GGUUGAUAACAGGAAGUUUTT against Spred2: inactive: 0.651. For the sequence GGAAGGUUGCUGAAGAACGTT against Zfp647, the z-score is inactive: 0.592. GCUCUACCCUGAAGAUAUATT against Immt: the z-score is active: 2.44. The same measure for GGACAUGGAACUGGAUGAATT against Ciita: active: -2.49; for GCCACGGCCAGUAAAACAUTT against Cdcp1: inactive: 0.335; for GGGUGAGACUUUUAUUAUUTT against Epdr1: inactive: -0.468.

Turning to GGAACGAUGGAUACUUGGGTT against Porcn, the z-score is inactive: 1.06. The same measure for GGUCUGAAAAUGGAAUACCTT against Vps13a: inactive: 1.8. As to GGCAGAUGUAACCAUAUCATT against Nfe2, the z-score is inactive: -1.09.

As for CCUCUGCGUAGUUUCCUUGTT against Olfr345, the z-score was inactive: 0.533.

GGCAGAAGCACUGUGGACUTT against Agr2: the z-score was inactive: -1.25. The same measure for GGACAGGAAGAUGUGGCUUTT against Ly6d: inactive: -0.429; for GCCAAGUUUCUUUUAGAGATT against Hmgcr: inactive: -0.502; for GGUUAAAGACCAUGUUUAUTT against Moxd1: inactive: -1.09. The same measure for CGUAGUUUUACAGAUCACUTT against Tenm3: inactive: -1.58.
